Experimental data: PubChem BioAssay AID504444 (National Center for Advancing Translational Sciences (NCATS), 2011)
The whole screen tested about 360,000 compounds, of which about 7,500 (2.1%) were called active. Inconclusive means that the source gave no clear call. Such entries were picked first, then a sample of the others. Calls come from the whole dose curve; as a rule, active = well fitted inhibition curve with a large enough effect; inconclusive = small, poorly fitted or top-dose-only effect, or effect the other way; inactive = flat fitted curve, though single readings scatter. Potencies of inconclusive entries are doubtful fits and often do not repeat.

Assay: Nrf2 qHTS screen for inhibitors; note: nearly all actives have a fitted effect of over 60% in size
Settings: A549 ARE-Fluc reporter, luciferase luminescence, 18-24 h; activity change, negative = inhibition: at 46 µM (top of the series)
How it was run: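 Nrf2 function is reported as luminescence of an ARE-controlled luciferase in A549 cells. Compounds were tested at several concentrations, and a CellTiter-Fluor read on the same wells flagged cytotoxicity.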
% is set by controls: 0 for no effect and ±100 for the full control effect; potency is the fitted concentration of half-maximal effect.

| Structure (SMILES) | Potency | activity change, negative = inhibition |
| --- | --- | --- |
| O=C(NCc1ccccc1)Nc1cccn(Cc2ccccc2F)c1=O | inconclusive: 32.6 µM [falling, single point] | – |
| C=CCOC(=O)/C(=C/c1cccc2ccccc12)NC(=O)c1ccccc1 | inconclusive: 5.8 µM [activator, full curve, poor fit] | – |
| CCN(Cc1ccncc1)C(=O)c1cc(COc2ccc(OC)cc2Cl)on1 | inconclusive: 6.51 µM [activator, single point] | – |
| Clc1ccc(OCCN2CCCCC2)c(Cl)c1 | inconclusive: 29.1 µM [activator, single point] | – |
| CC(C)(C)C(=O)Cn1c(=O)n(CC2CCCO2)c(=O)c2ccccc21 (configuration not stated) | – | inactive: 5.2% |
| COc1ccc(-c2nc3ccccc3s2)cc1 | inconclusive: 1.3 µM [activator, partial curve, poor fit] | – |
| N#CCSCC(=O)Nc1ccc(Br)cc1 | inconclusive: 5.17 µM [falling, single point] | – |
| COc1cccc(C(=O)NCCNC(=O)c2ccco2)c1 | inconclusive: 1.84 µM [falling, partial curve, poor fit] | – |
| O=C(CN1CCN(c2ccc(F)cc2)CC1)Nc1ccccc1Br | inconclusive: 13 µM [falling, partial curve, poor fit] | – |
| O=C1/C(=C\c2cccs2)N=C(c2cccs2)N1Nc1ccccc1 | inconclusive: 25.9 µM [falling, single point] | – |
| Cc1cccc(C(=O)Oc2ccccc2-c2nnco2)c1 | inconclusive: 1.46 µM [activator, partial curve] | – |
| CC(=O)c1cccc(NC(=O)COc2nsnc2N2CCOCC2)c1 | inconclusive: 23.1 µM [activator, partial curve, poor fit] | – |
| O=C(N/N=C/c1ccc(OC(=O)c2ccccc2Cl)cc1)c1cc(O)cc(O)c1 | active: 6.51 µM | – |
| Cn1cc(S(=O)(=O)NCc2ccc(F)cc2)c(=O)n(C)c1=O | inconclusive: 32.6 µM [activator, partial curve, poor fit] | – |
| Cc1ccc(NC(=O)c2ccc(N(Cc3ccccc3)S(C)(=O)=O)cc2)cc1 | – | inactive: 2.31% |
| CC(=O)c1ccc(NS(=O)(=O)c2ccc(CC(C)C)cc2)cc1 | inconclusive: 20.6 µM [falling, single point] | – |
| CC(C)c1nnc(NC(=O)c2ccc3ccccc3c2)s1 | inconclusive: 2.06 µM [activator, partial curve, poor fit] | – |
| CC(C)c1ccc(C2=NC(c3ccncc3)=Nc3ccc(F)cc3N2)cc1 | – | inactive: -9.24% |
| CC1CCc2nc(/C(C#N)=C/c3cccnc3)sc2C1 (configuration not stated) | inconclusive: 1.16 µM [activator, full curve, poor fit] | – |
| Cc1ccc(NC(=O)CN2CCOCC2)cc1 | inconclusive: 9.2 µM [activator, partial curve, poor fit] | – |
| C/C(=N/NC(=O)CCc1c(C)n[nH]c1C)c1cccc([N+](=O)[O-])c1 | inconclusive: 5.17 µM [falling, full curve] | – |
| COc1ccc(-c2csc(/C(C#N)=C/Nc3ccc4c(c3)OCCO4)n2)cc1 | inconclusive: 29.1 µM [falling, single point] | – |
| CCCOc1ccc(-c2nc(C#N)c(NCCCn3ccnc3)o2)cc1 | – | inactive: 4.87% |

| Structure (SMILES) | Potency | activity change, negative = inhibition |
| --- | --- | --- |
| CCn1c2ccccc2c2nnc(SCC(=O)c3ccccc3)nc21 | inconclusive: 2.31 µM [falling, partial curve, poor fit] | – |
| Cc1[nH]n(-c2ccccc2)c(=O)c1/C=N/NC(=O)c1ccccc1F | inconclusive: 23.1 µM [falling, single point] | – |
| O=C(O)c1cc(N/N=C/c2c[nH]c3ccccc23)ccc1Cl | inconclusive: 8.2 µM [activator, partial curve] | – |
| O=C(Cn1cc(SCc2ccccc2F)c2ccccc21)N1CCCC1 | inconclusive: 14.6 µM [activator, partial curve] | – |
| CC(/C=C1\SC(=S)N(NC(=O)c2ccc(C)cc2)C1=O)=C\c1ccccc1 | inconclusive: 20.6 µM [falling, single point] | – |
| Cc1onc(-c2ccccc2Cl)c1C(=O)Oc1cc(N)n(S(=O)(=O)c2ccc(F)cc2)n1 | inconclusive: 20.6 µM [falling, partial curve, poor fit] | – |
| CCOC(=O)C1CCN(C(=O)c2sc3nc(C)nc(N4CCC(C)CC4)c3c2C)CC1 | – | inactive: 7.68% |
| C/C(Cn1nnc2ccccc21)=N\NC(=O)c1ccc(Br)cc1 | inconclusive: 8.2 µM [activator, partial curve] | – |
| COc1ccc2nc(CC(C)(C)CC(=O)O)c[n+]([O-])c2c1 | – | inactive: 0.405% |
| CN1CCN(C(=S)NCCc2ccccc2)CC1 | inconclusive: 23.1 µM [activator, single point] | – |
| O=C(Cc1ccccc1)c1ccc(O)cc1 | – | inactive: -0.726% |
| Cc1c(Cl)c([N+](=O)[O-])nn1Cc1ccc(C(=O)Nc2ccc(Cl)cn2)o1 | inconclusive: 0.184 µM [activator, full curve, poor fit] | – |
| CN(C)c1ccc(C2NC(=O)c3ccccc3N2)cc1 (configuration not stated) | inconclusive: 7.31 µM [activator, partial curve] | – |
| CCOc1ccc2nc(N3CCC(C(=O)NCCCN4CCOCC4)CC3)sc2c1 | inconclusive: 9.2 µM [activator, partial curve, poor fit] | – |
| CCc1cccc(CC)c1NC(=O)CSc1nc2ccc(N3C(=O)C4C(C3=O)[C@H]3C=C[C@@H]4C3)cc2s1 (some centres not stated) | active: 13 µM | – |
| CCOc1ccc2nc(SCC(=O)c3cccs3)sc2c1 | inconclusive: 3.66 µM [activator, full curve] | – |
| CC(=O)N1c2ccc(S(=O)(=O)NCC3CCC(C(=O)NCc4ccccc4)CC3)cc2CC1C (configuration not stated) | inconclusive: 29.1 µM [falling, single point] | – |
| N#CC1=C(N)Oc2c(ccc3ccccc23)C1c1cccs1 (configuration not stated) | inconclusive: 17.8 µM [activator, single point] | – |
| COC(=O)c1ccc(NC(=O)NC(C)c2c(-n3cccc3)sc(C)c2C)cc1 (configuration not stated) | inconclusive: 29.1 µM [falling, single point] | – |
| O=C(Nc1ccc(F)c(Cl)c1)Nc1csc2ccccc12 | inconclusive: 25.9 µM [falling, single point] | – |
| COc1ccc(C(CC(=O)Nc2nccs2)n2cccc2)cc1 (configuration not stated) | inconclusive: 2.59 µM [activator, full curve] | – |
| CCN(CC)c1ncnc2c1cnn2Cc1ccc(C)cc1 | inconclusive: 25.9 µM [falling, single point] | – |
| O=C(NCc1ccccc1)c1ccc2c(c1)N(Cc1ccc(F)cc1)CCS2 | inconclusive: 9.2 µM [falling, partial curve] | – |

| Structure (SMILES) | Potency | activity change, negative = inhibition |
| --- | --- | --- |
| COc1ccc(CCNC(=O)CSCc2nc(-c3cccc(C)c3)oc2C)cc1OC | inconclusive: 20.6 µM [falling, single point] | – |
| COc1ccc(N2CC(C(=O)N[C@@H](C)C(=O)NCCc3ccccc3)CC2=O)cc1 (some centres not stated) | – | inactive: 14.2% |
| CC1(C)OC(=O)C(=NNc2ccc(Cl)cc2)C(=O)O1 | – | inactive: -15.7% |
| O=C(NC1CCCC1)c1ccc(CSc2nc3cccnc3n2Cc2ccccc2)cc1 | inconclusive: 25.9 µM [falling, single point] | – |
| O=c1c2ccccc2cnn1-c1ccc2ccccc2c1 | inconclusive: 0.411 µM [activator, full curve, poor fit] | – |
| COc1ccc2[nH]c3c(c2c1)CCN1C(=O)C(CC(=O)NCCCN(C)C)C[C@H](C(=O)N2CCOCC2)[C@@]31CCC1CCCC1 (some centres not stated) | – | inactive: 13.5% |
| Clc1cccc(Oc2cnns2)c1Cl | – | inconclusive: 37.9% [activator] |
| O=C1Nc2cc(C(=O)N3CCN(c4ccccn4)CC3)ccc2S/C1=C\c1ccccc1 | active: 23.1 µM | – |
| CCC(=O)Nc1ccccc1-c1nc2ccccc2n(CC(=O)Nc2ccc(C)c(C)c2)c1=O | – | inactive: 13.9% |
| CCSc1ccc(-c2ccc(C)cc2)nn1 | inconclusive: 11.6 µM [activator, partial curve, poor fit] | – |
| CCc1ccc(NC(=O)C2CCN(S(=O)(=O)c3c(C)noc3C)CC2)cc1 | inconclusive: 10.3 µM [falling, partial curve, poor fit] | – |
| COc1ccc(-n2nc(C(=O)NCC(=O)N3CCN(c4ccccn4)CC3)c3ccccc3c2=O)c(OC)c1 | inconclusive: 18.4 µM [activator, single point] | – |
| COc1ccc(N2CCN(C(=O)CSc3ccc([N+](=O)[O-])cc3)CC2)cc1 | inconclusive: 16.4 µM [falling, single point] | – |
| CC12CN3CC(C)(CN(C1)C3c1cc3ccccc3[nH]1)C2=O (configuration not stated) | inconclusive: 29.1 µM [activator, single point] | – |
| Cn1c(=O)c2cc(C(=O)Nc3cccc(C#N)c3)sc2c2ccccc21 | inconclusive: 29.1 µM [activator, single point] | – |
| O=C(NCc1cccnc1)c1c(O)c2cccc3c2n(c1=O)CCC3 | inconclusive: 23.1 µM [falling, single point] | – |
| Cc1cccc2c(SCC(=O)NCC3CCCO3)nc(-c3ccc(F)cc3)nc12 (configuration not stated) | inconclusive: 6.51 µM [falling, single point] | – |
| CC(NC(=O)c1ccco1)C(=O)OCC(=O)c1ccc(Cl)s1 (configuration not stated) | inconclusive: 32.6 µM [activator, single point] | – |
| CCCNC(=O)CN1C(=O)c2c(c3ccccc3n2C)C1c1ccc(OC)cc1 (configuration not stated) | – | inactive: -6.88% |
| O=C(NCC1(N2CCCCC2)CCCCC1)c1cccc(S(=O)(=O)Nc2ccccc2Cl)c1 | – | inactive: -12.6% |
| Cc1ccccc1C(=O)Nc1cccc(C(=O)N/N=C/c2cc(Cl)cc([N+](=O)[O-])c2O)c1 | inconclusive: 20.6 µM [falling, partial curve, poor fit] | – |

4 entries from above in a different format:
Structure (SMILES) | Potency | activity change, negative = inhibition
COc1ccc(N2CC(C(=O)N[C@@H](C)C(=O)NCCc3ccccc3)CC2=O)cc1 (some centres not stated) | – | inactive: 14.2%
CCc1ccc(NC(=O)C2CCN(S(=O)(=O)c3c(C)noc3C)CC2)cc1 | inconclusive: 10.3 µM [falling, partial curve, poor fit] | –
Cn1c(=O)c2cc(C(=O)Nc3cccc(C#N)c3)sc2c2ccccc21 | inconclusive: 29.1 µM [activator, single point] | –
O=C(NCC1(N2CCCCC2)CCCCC1)c1cccc(S(=O)(=O)Nc2ccccc2Cl)c1 | – | inactive: -12.6%
